# Some results were stated once for a whole list of compounds, not compound by compound. At least one compound was matched to its structure with a doubt left. *1 amine or outer side, *2 acyl side, *3 side chain or, on linkers, in order; H or OH if unused. Where a SMILES comes first, the peptide text is derived from it. [ ]: non-standard residue; d: D form. The star is where a group is joined. ξ: configuration not given here. X1 = CN1C(=O)[C@@H]2CCCN2C12C[C@@H](C(=O)[*:2])N([*:1])C2; Pyrazinecarbonyl = O=C(c1cnccn1)*; X2 = CCCC(N[*:1])C(=O)C(=O)[*:2]; Chg = N[C@H](C(=O)O)C1CCCCC1; Tle = CC(C)(C)[C@H](N)C(=O)O; ξPhg = NC(C(=O)O)c1ccccc1
# Biological target: T1, NS3/4A protease (Hepatitis C virus genotype 1a, UniProt P27958)
# T1 construct: N-terminal His6-tagged-NS4A (21-32)-GSGS-NS3(3-181); made in house; host or cells: E. coli BL21 (DE3) pLysS
# Test: Inhibition of NS3/4A protease, HPLC Microbore assay with substrate RET S1
# Assay type: biochemical, HCV
# Settings: 2 nM NS3/4A protease, substrate RET S1, 30 minutes at 37° C.
row,Compound,inhibition of NS3/4A protease activity
1,"CCCC(NC(=O)[C@@H]1CC2(CN1C(=O)[C@@H](NC(=O)[C@@H](NC(=O)c1cnccn1)C1CCCCC1)C(C)(C)C)N(C)C(=O)[C@@H]1CCCN12)C(=O)C(=O)NCC(=O)NC(C(=O)N(C)C)c1ccccc1 (stereo partly drawn) [Compound 18, (5S,7a′S)-1-((S)-2-((S)-2-cyclohexyl-2-(pyrazine-2-carboxamido)acetamido)-3,3-dimethylbutanoyl)-N-(1-(2-(2-(dimethylamino)-2oxo-1-phenylethylamino)-2-oxoethylamino)-1,2-dioxohexan-3-yl)-2′-methyl-1′-oxohexahydrospiro[pyrrolidine-3,3′-pyrrolo[1,2-c]imidazole]-5-carboxamide] (Pyrazinecarbonyl-[Chg][Tle][X1][X2]G[ξPhg]-NMe2)",exhibited inhibition of NS3/4A protease activity
2,"CCCC(NC(=O)[C@@H]1CC2(CN1C(=O)[C@@H](NC(=O)[C@@H](NC(=O)c1cnccn1)C1CCCCC1)C(C)(C)C)N(C)C(=O)[C@H]1C[C@@H](OCc3ccccc3)CN12)C(=O)C(=O)N[C@@H](C)c1ccccc1 (stereo partly drawn) [Compound 19, (5S,6′R,7a′R)-6′-(benzyloxy)-1-((S)-2-((S)-2-cyclohexyl-2-(pyrazine-2-carboxamido)acetamido)-3,3-dimethylbutanoyl)-N-(1,2-dioxo-1-((S)-1-phenylethylamino)hexan-3-yl)-2′-methyl-1′-oxohexahydrospiro[pyrrolidine-3,3′-pyrrolo[1,2-c]imidazole]-5carboxamide]",exhibited inhibition of NS3/4A protease activity
3,"C=CCO[C@@H]1C[C@@H]2C(=O)N(CC)C3(C[C@@H](C(=O)NC(CCC)C(=O)C(=O)N[C@@H](C)c4ccccc4)N(C(=O)[C@@H](NC(=O)[C@@H](NC(=O)c4cnccn4)C4CCCCC4)C(C)(C)C)C3)N2C1 (stereo partly drawn) [Compound 20, (5S,6′R,7a′R)-6′-(allyloxy)-1-((S)-2-((S)-2-cyclohexyl-2-(pyrazine-2-carboxamido)acetamido)-3,3-dimethylbutanoyl)-N-(1,2-dioxo-1-((S)-1-phenylethylamino)hexan-3-yl)-2′-ethyl-1′-oxohexahydrospiro[pyrrolidine-3,3′-pyrrolo[1,2-c]imidazole]-5-carboxamide]",exhibited inhibition of NS3/4A protease activity
4,"CCN1C(=O)[C@H]2CCCN2C12C[C@@H](C(=O)NC(CCC(C)C)C(=O)C(=O)NC1CC1)N(C(=O)[C@@H](NC(=O)[C@@H](NC(=O)c1cnccn1)C1CCCCC1)C(C)(C)C)C2 (stereo partly drawn) [Compound 21, (5S,7a′R)-1-((S)-2-((S)-2-cyclohexyl-2-(pyrazine-2-carboxamido)acetamido)-3,3-dimethylbutanoyl)-N-(1-(cyclopropylamino)-6-methyl-1,2-dioxoheptan-3-yl)-2′-ethyl-1′-oxohexahydrospiro[pyrrolidine-3,3′-pyrrolo[1,2-c]imidazole]-5-carboxamide]",exhibited inhibition of NS3/4A protease activity
5,"CCN1C(=O)[C@H]2CCCN2C12C[C@@H](C(=O)NC(CC(C)C)C(=O)C(=O)NC1CC1)N(C(=O)[C@@H](NC(=O)[C@@H](NC(=O)c1cnccn1)C1CCCCC1)C(C)(C)C)C2 (stereo partly drawn) [Compound 22, (5S,7a′R)-1-((S)-2-((S)-2-cyclohexyl-2-(pyrazine-2-carboxamido)acetamido)-3,3-dimethylbutanoyl)-N-(1-(cyclopropylamino)-5-methyl-1,2-dioxohexan-3-yl)-2′-ethyl-1′-oxohexahydrospiro [pyrrolidine-3,3′-pyrrolo[1,2-c]imidazole]-5-carboxamide]",exhibited inhibition of NS3/4A protease activity
6,"CCCCC(NC(=O)[C@@H]1CC2(CN1C(=O)[C@@H](NC(=O)[C@@H](NC(=O)c1cnccn1)C1CCCCC1)C(C)(C)C)N(CC)C(=O)[C@H]1CCCN12)C(=O)C(=O)NC1CC1 (stereo partly drawn) [Compound 23, (5S,7a′R)-1-((S)-2-((S)-2-cyclohexyl-2-(pyrazine-2-carboxamido)acetamido)-3,3-dimethylbutanoyl)-N-(1-(cyclopropylamino)-1,2-dioxoheptan-3-yl)-2′-ethyl-1′-oxohexahydrospiro[pyrrolidine-3,3′-pyrrolo[1,2-c]imidazole]-5-carboxamide]",exhibited inhibition of NS3/4A protease activity
7,"CCCC(NC(=O)[C@@H]1CC2(CN1C(=O)[C@@H](NC(=O)[C@@H](NC(=O)c1cnccn1)C1CCCCC1)C(C)(C)C)N(CC)C(=O)[C@H]1CCCN12)C(=O)C(=O)N[C@@H](C)c1ccccc1 (stereo partly drawn) [Compound 24, (5S,7a′R)-1-((S)-2-((S)-2-cyclohexyl-2-(pyrazine-2-carboxamido)acetamido)-3,3-dimethylbutanoyl)-N-(1,2-dioxo-1-((S)-1-phenylethylamino)hexan-3-yl)-2′-ethyl-1′-oxohexahydrospiro[pyrrolidine-3,3′-pyrrolo[1,2-c]imidazole]-5-carboxamide]",exhibited inhibition of NS3/4A protease activity
8,"CCCC(NC(=O)[C@@H]1CC2(CN1C(=O)[C@@H](NC(=O)[C@@H](NC(=O)c1cnccn1)C1CCCCC1)C(C)(C)C)N(CC)C(=O)[C@H]1C[C@@H](O)CN12)C(=O)C(=O)N[C@@H](C)c1ccccc1 (stereo partly drawn) [Compound 26, (5S,6′R,7a′R)-1-((S)-2-((S)-2-cyclohexyl-2-(pyrazine-2-carboxamido)acetamido)-3,3-dimethylbutanoyl)-N-(1,2-dioxo-1-((S)-1-phenylethylamino)hexan-3-yl)-2′-ethyl-6′-hydroxy-1′-oxohexahydrospiro[pyrrolidine-3,3′-pyrrolo[1,2-c]imidazole]-5-carboxamide]",exhibited inhibition of NS3/4A protease activity
9,"CCCC(NC(=O)[C@@H]1CC2(CN1C(=O)[C@@H](NC(=O)[C@@H](NC(=O)c1cnccn1)C1CCCCC1)C(C)(C)C)N(CC)C(=O)[C@H]1C[C@@H](NC(=O)CC(C)C)CN12)C(=O)C(=O)N[C@@H](C)c1ccccc1 (stereo partly drawn) [Compound 27, (5S,6′R,7a′R)-1-((S)-2-((S)-2-cyclohexyl-2(pyrazine-2 2-carboxamido)acetamido)-3,3-dimethylbutanoyl)-N-(1,2-dioxo-1-((S)-1-phenylethylamino)hexan-3-yl)-2′-ethyl-6′-(3-methylbutanamido)-1′-oxohexahydrospiro[pyrrolidine-3,3′-pyrrolo[1,2-c]imidazole]-5-carboxamide]",exhibited inhibition of NS3/4A protease activity
10,"CCCC(NC(=O)[C@@H]1CC2(CN1C(=O)[C@@H](NC(=O)[C@@H](NC(=O)c1cnccn1)C1CCCCC1)C(C)(C)C)N(CC(C)C)C(=O)C1CCCN12)C(=O)C(=O)N[C@@H](C)c1ccccc1 (stereo partly drawn) [Compound 28, (5S,7a′R)-1-((S)-2-((S)-2-cyclohexyl-2-(pyrozine-2-carboxamido)acetamido)-3,3-dimethylbutanoyl)-N-(1,2-dioxo-1-((S)-1-phenylethlamino)hexan-3-yl)-2′-isobutyl-1′-oxohexahydrospiro[pyrrolidine-3,3′-pyrrolo [1,2-c]imidazole]-5-carboxamide]",exhibited inhibition of NS3/4A protease activity
11,"CCCC(NC(=O)[C@@H]1CC2(CN1C(=O)[C@@H](NC(=O)[C@@H](NC(=O)c1cnccn1)C1CCCCC1)C(C)(C)C)N(Cc1cccc(OC)c1)C(=O)[C@H]1CCCN12)C(=O)C(=O)N[C@@H](C)c1ccccc1 (stereo partly drawn) [Compound 29, (5S,7a′R)-1-((S)-2-((S)-2-cyclohexyl-2-(pyrazine-2-carboxamido)acetamido)-3,3-dimethylbutanoyl)-N-(1,2-dioxo-1-((S)-1-phenylethylamino)hexan-3-yl)-2′-(3-methoxybenzyl)-1′-oxohexahydrospiro[pyrrolidine-3,3′-pyrrolo[1,2-c]imidazole]-5-carboxamide]",exhibited inhibition of NS3/4A protease activity
12,"CCCC(NC(=O)[C@@H]1CC2(CN1C(=O)[C@@H](NC(=O)[C@@H](NC(=O)c1cnccn1)C1CCCCC1)C(C)(C)C)N(Cc1cccc(OC)c1)C(=O)[C@H]1CCCN12)C(=O)C(=O)NC1CC1 (stereo partly drawn) [Compound 30, (5S,7a′R)-1-((S)-2-((S)-2-cyclohexyl-2-(pyrazine-2-carboxamido)acetamido)-3,3-dimethylbutanoyl)-N-(1-(cyclopropylamino)-1,2-dioxohexan-3-yl)-2′-(3-methoxybenzyl)-1′-oxohexahydrospiro[pyrrolidine-3,3′-pyrrolo[1,2-c]imidazole]-5-carboxamide]",exhibited inhibition of NS3/4A protease activity
13,"C=CCN1C(=O)[C@@H]2CCCN2C12C[C@@H](C(=O)NC(CCC)C(=O)C(=O)NC1CC1)N(C(=O)[C@@H](NC(=O)[C@@H](NC(=O)c1cnccn1)C1CCCCC1)C(C)(C)C)C2 (stereo partly drawn) [Compound 32, (5S,7a′S)-2′-allyl-1-((S)-2-((S)-2-cyclohexyl-2-(pyrazine-2-carboxamido)acetamido)-3,3-dimethylbutanoyl)-N-(1-(cyclopropylamino)-1,2-dioxohexan-3-yl)-1′-oxohexahydrospiro[pyrrolidine-3,3′-pyrrolo[1,2-c]imidazole]-5-carboxamid]",exhibited inhibition of NS3/4A protease activity
14,"C#CCN1C(=O)[C@H]2CCCN2C12C[C@@H](C(=O)NC(CCC)C(=O)C(=O)N[C@@H](C)c1ccccc1)N(C(=O)[C@@H](NC(=O)[C@@H](NC(=O)c1cnccn1)C1CCCCC1)C(C)(C)C)C2 (stereo partly drawn) [Compound 33, (5S,7a′R)-1-((S)-2-((S)-2-cyclohexyl-2-(pyrazine-2-carboxamido)acetamido)-3,3-dimethylbutanoyl)-N-(1,2-dioxo-1-((S)-1-phenylethylamino)hexan-3-yl)-1′-oxo-2′-(prop-2-ynyl)hexahydrospiro[pyrrolidine-3,3′-pyrrolo[1,2-c]imidazole]-5-carboxamide]",exhibited inhibition of NS3/4A protease activity

# Source: patent US20080108632A1, “HCV PROTEASE INHIBITORS” (TaiGen Biotechnology Co., Ltd., priority 2006, published 2008)
